Data as given in PubChem BioAssay AID1259254 (NCATS, 2017).
This is one part, drawn at random, of about 59,000 reagents tested. In the full data, about 1,550 (2.6%) are marked active. 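G2 share is only a proxy for re-replication; each gene was hit by three separate siRNAs, and active genes were retested.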 Raw values vary from plate to plate and are shown uncorrected. Not stated in the record: the amount of reagent.

- Test: 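Finding genes that stop cells copying their DNA twice in one cycle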 (primary screen)
- System: human HCT116 colorectal cancer cells
- Knock-down reagent: single siRNA against human genes
- Time to read-out: 3 days
- Measured: 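Imaged Hoechst DNA stain sorts each cell into a cycle phase by DNA amount; per plate, G2 fraction set to 0% for non-targeting and 100% for GMNN siRNA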
- Scale: G2 robust z-score and G2 cells, % of GMNN control: higher = more G2 cells, more excess DNA replication; raw share of cells in G2: higher = larger share of cells with G2 DNA content
- Hit rule: 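Active siRNAs have a G2 robust z of 5 or more median absolute deviations over the median, which in these data means about 38% or higher of GMNN control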

no.	Target gene	PubChem SID	G2 robust z-score	G2 cells, % of GMNN control	raw share of cells in G2 (%)	outcome
1	MAST2	SID160755406	-0.961	-3.79	4.35	inactive
2	MAST2	SID160756449	-1.52	-7.7	2.82	inactive
3	MAST2	SID160757478	0.0111	3.05	5.1	inactive
4	CUL2	SID160720076	1.16	11.2	10.1	inactive
5	CUL2	SID160720077	-0.537	-0.809	3.57	inactive
6	CUL2	SID160735104	0.159	4.09	4.79	inactive
7	OR5P2	SID160755769	-0.653	-1.63	3.44	inactive
8	OR5P2	SID160755770	5.02	38.3	14.7	active
9	OR5P2	SID160755771	-0.0132	2.87	2.66	inactive
10	RHO	SID160715899	6.11	46	22.3	active
11	RHO	SID160715900	-0.914	-3.46	3.31	inactive
12	RHO	SID160715901	-0.574	-1.07	2.94	inactive
13	SLC35C1	SID160743592	-1.44	-7.15	1.78	inactive
14	SLC35C1	SID160743593	0.625	7.37	7.19	inactive
15	SLC35C1	SID160743594	0.307	5.12	4.77	inactive
16	SLC3A2	SID160716824	-0.741	-2.25	4.92	inactive
17	SLC3A2	SID160716825	0.0411	3.26	5.66	inactive
18	SLC3A2	SID160716826	-0.103	2.24	4.7	inactive
19	KITLG	SID160777219	-0.484	-0.435	3.05	inactive
20	KITLG	SID160777220	0.63	7.4	8.4	inactive
21	KITLG	SID160777221	-1.39	-6.83	2.72	inactive
22	SAGE2P	SID160769306	0.134	3.91	5.13	inactive
23	SAGE2P	SID160769307	-0.499	-0.54	3.08	inactive
24	SAGE2P	SID160769308	3.33	26.4	10.8	inactive
25	USP33	SID160735279	-0.69	-1.89	4.9	inactive
26	USP33	SID160735280	0.824	8.77	8.01	inactive
27	USP33	SID160735281	-0.612	-1.34	3.41	inactive
28	RPS11	SID160716178	1.48	13.4	10.7	inactive
29	RPS11	SID160716179	7.47	55.6	26.2	active
30	RPS11	SID160716180	4.04	31.4	14.7	inactive
31	RFPL4AL1	SID160773342	0.184	4.26	5.77	inactive
32	RFPL4AL1	SID160773343	0.0402	3.25	4.32	inactive
33	RFPL4AL1	SID160773344	0.383	5.66	5.24	inactive
34	GALNT1	SID160769061	-0.743	-2.26	4.42	inactive
35	GALNT1	SID160769067	1.53	13.7	10.5	inactive
36	GALNT1	SID160769074	0.254	4.76	5.35	inactive
37	REPS2	SID160721674	-0.657	-1.65	3.79	inactive
38	REPS2	SID160721675	0.615	7.3	7.32	inactive
39	REPS2	SID160721676	-0.0301	2.76	6.23	inactive
40	EEF2KMT	SID160732641	-0.364	0.405	2.89	inactive
41	EEF2KMT	SID160760635	0.0676	3.44	4.84	inactive
42	EEF2KMT	SID160760636	0.2	4.37	4.43	inactive
43	ROM1	SID160715980	-1.64	-8.55	2.04	inactive
44	ROM1	SID160715981	0.341	5.37	6.73	inactive
45	ROM1	SID160715982	3.79	29.7	14	inactive
46	SYCP3	SID160739626	2.1	17.7	10.6	inactive
47	SYCP3	SID160739627	2.16	18.2	11.4	inactive
48	SYCP3	SID160739628	-0.152	1.9	3.85	inactive

7 entries from above, set out differently:
{"Target gene": "SLC35C1", "PubChem SID": "SID160743594", "G2 robust z-score": 0.307, "G2 cells, % of GMNN control": 5.12, "raw share of cells in G2 (%)": 4.77, "outcome": "inactive"}
{"Target gene": "SLC3A2", "PubChem SID": "SID160716824", "G2 robust z-score": -0.741, "G2 cells, % of GMNN control": -2.25, "raw share of cells in G2 (%)": 4.92, "outcome": "inactive"}
{"Target gene": "SLC3A2", "PubChem SID": "SID160716825", "G2 robust z-score": 0.0411, "G2 cells, % of GMNN control": 3.26, "raw share of cells in G2 (%)": 5.66, "outcome": "inactive"}
{"Target gene": "SLC3A2", "PubChem SID": "SID160716826", "G2 robust z-score": -0.103, "G2 cells, % of GMNN control": 2.24, "raw share of cells in G2 (%)": 4.7, "outcome": "inactive"}
{"Target gene": "KITLG", "PubChem SID": "SID160777219", "G2 robust z-score": -0.484, "G2 cells, % of GMNN control": -0.435, "raw share of cells in G2 (%)": 3.05, "outcome": "inactive"}
{"Target gene": "KITLG", "PubChem SID": "SID160777220", "G2 robust z-score": 0.63, "G2 cells, % of GMNN control": 7.4, "raw share of cells in G2 (%)": 8.4, "outcome": "inactive"}
{"Target gene": "KITLG", "PubChem SID": "SID160777221", "G2 robust z-score": -1.39, "G2 cells, % of GMNN control": -6.83, "raw share of cells in G2 (%)": 2.72, "outcome": "inactive"}
